According to patent US8633246B2, “Omega-3 fatty acids for osteoarthritis” (Hill's Pet Nutrition, Inc., priority 2003, dated 2014):

Experiments:
[1] = system: canine chondrocyte membranes; experiment: Incorporation of n-3 fatty acids into chondrocyte membranes, monolayer cultures; format: cell-based, dog
[2] = system: canine articular cartilage explants; experiment: Media lactate concentration of cartilage explant cultures; format: cell-based; details: Dog 4; 300 μg/ml pre-treatment; control, RA- and OSM-treated cultures

Row | Compound | incorporation of 18:3 n-3 into chondrocyte membranes ([1]; 24 or 48 hours, two dogs) | incorporation into chondrocyte membranes ([1]; 48 hours, one dog, 300 μg/ml for each fatty acid) | % 18:3 n-3 in chondrocytes (range) ([1]; after 24 or 48 hours with 100 or 300 μg/ml ALA) | change in media lactate concentration [2]
1 | CC/C=C\C/C=C\C/C=C\CCCCCCCC(=O)O [ALA, alpha-linolenic acid] | no incorporation | but not the 18:3 n-3 fatty acid ALA | 0.3-2.5% | –
2 | oncostatin M [OSM] | – | – | – | significant decrease
